At least one peptide structure holds a part that was inferred or is arguable (an end, a ring closure or a residue). For part of these data: At least one compound was matched to its structure with a doubt left. Peptide text beside a SMILES is read from it.
Columns and labels:
[1] = type: cell-based, mice; conditions: mouse vas deferens, electric stimulation; number of experiments in parentheses; read-out: VAS DEFERENS IC 50
Description: (§1) The study of the action on μ receptors or on σ receptors was conducted as a function of the effect on the isolated ileum of guinea-pigs or on the vas deferens of mice.
(§2) The action on the σ receptors was determined by the measure of the 50% inhibiting concentration (IC 50) of the contraction of the vas deferens of mice, induced by electric stimulation.
(§3) The 50% inhibiting concentrations are expressed as nanomolar/liter concentrations.
(§4) The ratio [formula] makes it possible to find out whether the test material is […] σ- specific. In said Table, the number of experiments is indicated between parentheses.

Protein sequences, listed by entry. Tags and fused reporters are not part of them.
UniProt P97266, whole entry, looked up: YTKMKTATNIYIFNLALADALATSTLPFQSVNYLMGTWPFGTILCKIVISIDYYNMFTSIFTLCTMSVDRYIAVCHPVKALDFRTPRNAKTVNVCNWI

σ receptors = type: cell-based, mice; conditions: for VAS DEFERENS Relative action: % activity with respect to Met-Enkephalin=100; for R IC 50 ileum / IC 50 V.D.: ratio of ileum (μ) IC50 to vas deferens IC50
Description: as §1, §2, §3, §4

μ receptors = μ receptors (Cavia porcellus, UniProt P97266); test: Inhibition of the contraction of the isolated guinea-pig ileum induced by coaxial stimulation; type: cell-based, guinea-pigs; conditions: for ILEUM Relative action: % activity with respect to Met-Enkephalin=100
Description: as §1
The action on the μ receptors was determined by the measure of the 50% inhibiting concentration (IC 50) of the contraction of the isolated ileum of guinea-pigs, induced by coaxial stimulation (PATON W.D.M., Brit.J. Pharm. 1959, 12, 119).
The 50% inhibiting concentrations are expressed as nanomolar/liter concentrations. Each product is tested with respect to Met-Enkephalin as reference material and the results obtained are also expressed as % activity with respect to Met-Enkephalin=100.
as §4

rats = test: Anti-diarrhea action, castor oil test; type: in vivo; conditions: 3 mg/kg orally, 10 rats, one hour prior to castor oil
Description: This action was investigated by the castor oil test in rats, using the method according to Niemegeers and co-workers (Arzn.-Forsch. 22, 516-518, 1972).
The tests were conducted with male rats of 160-220 g body weight. After an 18 hr fasting period, each animal was orally administered 1 ml castor oil.
The test compounds, dissolved in water, were administered orally under a volume of 0.5 ml per 100 g body weight, one hour prior to the castor oil administration.

SMILES | IC50 [1] [nM] | VAS DEFERENS Relative action (σ receptors) [%] | R IC 50 ileum / IC 50 V.D. (σ receptors) | ILEUM Relative action (μ receptors) [%] | IC50 (μ receptors; isolated guinea-pig ileum, coaxial stimulation, number of experiments in parentheses, read-out: ILEUM IC 50) [nM] | Number of non-diarrheic animals 2 hours (rats) | Number of non-diarrheic animals 4 hours (rats)
CC(C)C[C@H](NC(=O)[C@H](Cc1ccccc1)NC(=O)CNC(=O)[C@@H](C)NC(=O)[C@@H](N)Cc1ccc(O)cc1)C(=O)N[C@H](C(=O)O)[C@@H](C)O [Example 2, TyrD.AlaGlyPheLeuThr] (HELM PEPTIDE1{Y.[dA].G.F.L.T}$$$$V2.0) | 2 | 900 | 250 | 80 | – | – | –
CSCC[C@H](NC(=O)[C@H](Cc1ccccc1)NC(=O)CNC(=O)[C@@H](C)NC(=O)[C@@H](N)Cc1ccc(O)cc1)C(=O)NCCCCCNS(=O)(=O)c1cccc2c(N(C)C)cccc12 [Example 13 of patent FR 78 12 543, reference compound] | – | – | – | – | 320 | – | –
CCCC[C@H](NC(=O)[C@H](Cc1ccccc1)NC(=O)CNC(=O)[C@@H](CO)NC(=O)[C@@H](N)Cc1ccc(O)cc1)C(=O)N[C@H](C(=O)O)[C@@H](C)O [Example 25, TyrD.SerGlyPheN.LeuThr] | 1.2 | 1500 | 875 | 34 | – | 10 | 6
CC(C)C[C@@H](NC(=O)[C@H](Cc1ccccc1)NC(=O)CNC(=O)[C@@H](CO)NC(=O)[C@@H](N)Cc1ccc(O)cc1)C(=O)O [Example 45, TyrD.SerGlyPheD.Leu] (HELM PEPTIDE1{Y.[dS].G.F.[dL]}$$$$V2.0) | 1.15 | 1565 | 215 | 143 | – | – | –

— US4407794A, “Peptides and therapeutic applications thereof” (Centre National de la Recherche Scientifique (CNRS), priority 1980, dated 1983)
